Values quoted from earlier work, collected in patent publication US20200155567A1, “TREATMENT OF CANCERS USING A COMBINATION COMPRISING PARP INHIBITORS, TEMOZOLOMIDE AND/OR RADIATION THERAPY” (BEIGENE, LTD., priority 2017, published 2020).
At least one compound was matched to its structure with a doubt left.

Test system: GB
Conditions: in vivo; cited from earlier work

For `Cn1nnc2c(C(N)=O)ncn2c1=O` [TMZ, temozolomide], the “overall survival (OS) benefit” value is listed as 2.5 month.
